Measured values: article doi:10.1101/2025.11.04.686669
No constants are given. Whether binding was seen depends on the method and setting. In cells and extracts the contact can be indirect. Some results given as binding are weak or reduced against the parent protein; the word gives no strength.

Chains of the proteins cited; added tags and fusions are not shown. Lines headed by an entry give the natural chain unless they say otherwise; changes in a name come on top. Residues count along the entry.
UniProt Q06831, whole entry: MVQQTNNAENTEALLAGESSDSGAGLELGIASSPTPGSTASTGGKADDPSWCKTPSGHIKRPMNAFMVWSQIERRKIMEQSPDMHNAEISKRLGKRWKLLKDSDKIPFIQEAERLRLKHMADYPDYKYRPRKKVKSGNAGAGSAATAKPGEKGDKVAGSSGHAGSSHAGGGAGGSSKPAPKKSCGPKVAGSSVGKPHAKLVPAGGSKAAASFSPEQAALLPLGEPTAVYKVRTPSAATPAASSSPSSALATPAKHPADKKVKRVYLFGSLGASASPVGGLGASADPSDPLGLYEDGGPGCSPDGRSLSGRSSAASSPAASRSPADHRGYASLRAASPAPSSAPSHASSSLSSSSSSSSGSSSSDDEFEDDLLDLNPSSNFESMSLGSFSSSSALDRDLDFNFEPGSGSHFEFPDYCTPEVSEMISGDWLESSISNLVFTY
UniProt Q06831, 1-407, stated change not applied: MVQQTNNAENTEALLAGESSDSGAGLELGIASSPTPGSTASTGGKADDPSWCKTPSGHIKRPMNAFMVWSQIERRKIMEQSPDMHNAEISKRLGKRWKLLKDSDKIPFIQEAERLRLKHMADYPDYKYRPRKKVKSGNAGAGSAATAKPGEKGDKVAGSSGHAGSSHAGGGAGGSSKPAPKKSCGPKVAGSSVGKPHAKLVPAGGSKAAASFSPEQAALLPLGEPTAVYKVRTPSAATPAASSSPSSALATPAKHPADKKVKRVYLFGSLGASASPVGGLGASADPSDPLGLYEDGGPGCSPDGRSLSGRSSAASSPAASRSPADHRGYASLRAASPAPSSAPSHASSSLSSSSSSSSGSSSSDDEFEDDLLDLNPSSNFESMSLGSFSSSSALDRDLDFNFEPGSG
UniProt P54843, whole entry: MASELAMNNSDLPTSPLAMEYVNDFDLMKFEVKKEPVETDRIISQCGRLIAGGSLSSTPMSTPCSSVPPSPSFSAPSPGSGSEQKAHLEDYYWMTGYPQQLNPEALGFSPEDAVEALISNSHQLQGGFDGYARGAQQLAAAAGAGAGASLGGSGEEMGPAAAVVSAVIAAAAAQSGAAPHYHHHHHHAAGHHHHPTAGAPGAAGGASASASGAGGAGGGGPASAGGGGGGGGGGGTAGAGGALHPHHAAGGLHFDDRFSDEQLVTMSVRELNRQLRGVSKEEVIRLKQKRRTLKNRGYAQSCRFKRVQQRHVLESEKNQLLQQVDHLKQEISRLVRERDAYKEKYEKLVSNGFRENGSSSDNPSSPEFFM

Columns and labels:
[1] = target: HA-Sox4 (UniProt Q06831); assay: co-IP
[2] = target: HA-Sox4ΔC (UniProt Q06831); assay: co-IP

- binding [1]: binds
- binding [2]: binds
Substance: Flag-c-Maf (from UniProt P54843 1-370)
